Article doi:10.1101/2023.08.31.555690

How the values were obtained:
Assay in all cases: EMSA
[1] = system: Toast gp42 (phage Toast (mycophage))
[2] = system: Sbash gp30 (Mycobacterium phage Sbash (mycophage))
[3] = system: CarolAnn gp44 (phage CarolAnn (mycophage))

Row | Sequence | binding result [1] | binding result [2] | binding result [3] | further results
1 | CACCGACCCGGCTACCGCTTAACGCGTGTCGTGTCGCACCTGCCGTCTACCAATGACTACCGGGGATTGTGCCTCATATCCGCAGGCTGCGGAACTACAGGGCTGTAATTTCTTGACGAGCGTCTACCTGCTGCGGAAGAATCATCCGCAGCCTATTGACACCACCCCGTCTACCAGGAGAGACTCATG (double strand) [Toast_OR1-OR2-OR3] | binds |  |  | 
2 | CATACGTCGAGTCTGACAGAAACATTCGGCAAACTTTCGAACTGGGTGGCAAACATCATCAGTGTAATTTCCTCCGACTATTGGGTCTTAGGTCAAGAAACCCCTGGTAGTCCAGGTTTGCCGTTTTAGGAAAAGTTTCGGCATGTCGGTTTGCCGACCCGAATCTACGGTGTATCTTCGGGGATATG (double strand) [Sbash_OR1-OR2-OR3] |  | binds |  | 
3 | CATGCCAGGATATTCGCTACAAATAGTACGTGATACGACATCGCGAT (double strand) [Rex_OR1-OR2_Scram] |  |  |  | binding result ([3]; profile unchanged vs OR1-OR2): binds; binding result ([2]; profile unchanged vs OR1-OR2): binds; binding result ([1]; profile unchanged vs OR1-OR2): binds
4 | CATGGATTGAGGTTCAACCGCCCGTCCTTCGGCACGCAACGCGCAACGGAACCTATGCGGTTACCGCGTTTGCTCGCTCCGGCTTCCTTCTCCGTGTACCAACTTGTCCCCCGGATTGTGCCGCATACACGCAGGCTGCGGAACTACCGCCGTGTAATTCATTGCCATGCGTGTACCCACCATGCAAGAATCATACGCAGTTGCTTGACACCCAGCCGGTTACCGAGGAGGATCAATGGCGAGCTACACACGCTGGCCGAAGGGAAGTTGGATG (double strand) [CarolAnn_OR1-OR2-OR3] |  |  | binds | 
5 | CATTATCACCGCCAGAGGTAAAATAGTCAACACGCACGGTGTTAGAT (double strand) [Rex_OR1-OR2] | binds | binds | binds | 

Like-named read-outs stand apart in the source and are kept apart here. The exact form of at least one protein or probe is not confirmed. At least one verdict rests on a figure or table, not on a statement of the authors.
